We go through one molecule from US20160222458A1.

By UniProt entry, the sequences of proteins in these tests, tags left out.
UniProt Q14680: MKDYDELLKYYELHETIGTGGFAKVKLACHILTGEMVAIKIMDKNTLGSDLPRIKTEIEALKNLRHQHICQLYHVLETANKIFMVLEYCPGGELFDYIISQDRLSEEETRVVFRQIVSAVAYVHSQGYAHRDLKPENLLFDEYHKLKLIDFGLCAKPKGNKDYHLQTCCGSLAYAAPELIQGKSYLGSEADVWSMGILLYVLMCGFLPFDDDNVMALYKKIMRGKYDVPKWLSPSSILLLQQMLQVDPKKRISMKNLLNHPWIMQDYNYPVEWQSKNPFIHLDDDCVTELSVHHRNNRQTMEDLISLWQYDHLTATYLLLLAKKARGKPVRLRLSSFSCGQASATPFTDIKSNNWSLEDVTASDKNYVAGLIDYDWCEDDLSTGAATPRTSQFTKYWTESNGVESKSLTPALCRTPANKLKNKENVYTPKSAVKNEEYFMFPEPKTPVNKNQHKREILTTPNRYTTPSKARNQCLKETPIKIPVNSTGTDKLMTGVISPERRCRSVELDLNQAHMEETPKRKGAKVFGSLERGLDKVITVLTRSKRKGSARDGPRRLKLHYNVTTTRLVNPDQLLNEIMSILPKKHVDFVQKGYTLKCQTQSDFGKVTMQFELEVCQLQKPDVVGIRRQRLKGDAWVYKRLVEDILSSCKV

No constants are given. Whether binding was seen depends on the method and setting. Some binding calls cover weakened binding; strength is not graded here. Tags and fused reporters may be left off the sequences shown.

The experiment deals with Maternal embryonic leucine zipper kinase (MELK) (UniProt Q14680). Kind of experiment: co-localisation by confocal immunofluorescence in MDA-MB-436 cells (GFP-PRR11); complex inferred.

B1: GFP-PRR11 (protein, UniProt Q96HE9 1-360, looked up, not shown: large carriers)
chain: MPKFKQRRRKLKAKAERLFKKKEASHFQSKLITPPPPPPSPERVGISSIDISQSRSWLTSSWNFNFPNIRDAIKLWTNRVWSIYSWCQNCITQSLEVLKDTIFPSRICHRELYSVKQQFCILESKLCKLQEALKTISESSSCPSCGQTCHMSGKLTNVPACVLITPGDSKAVLPPTLPQPASHFPPPPPPPPLPPPPPPLAPVLLRKPSLAKALQAGPLKKDGPMQITVKDLLTVKLKKTQSLDEKRKLIPSPKARNPLVTVSDLQHVTLKPNSKVLSTRVTNVLITPGKSQMDLRKLLRKVDVERSPGGTPLTNKENMETGTGLTPVMTQALRRKFQLAHPRSPTPTLPLSTSSFDEQN
For the molecule B1, the binding result was “binds”.
